# Where “and” joins values, the source holds several entries; their conditions need not be identical. Equal entries are not always repeated. The list shows a part of the results. Further columns of the screen follow, without active or inactive calls. The list favours compounds with an active or inconclusive main result. Potencies come from curve fits of mixed quality, noted in brackets.
# Assay: qHTS Assay for Lipid Storage Modulators in Drosophila S3 Cells;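 for cell number change: cells counted by Cell Tracker Red CMTPX staining in the red channel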
# Conditions: BODIPY lipid droplet fluorescence, 18-24 h; for cell number change: measured here: cell count max response, cells fed with added oleic acid
# In short: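 Laser-scanning cytometry quantifies lipid droplet accumulation (500–530 nm total intensity; droplet/cell object ratio) in oleic acid-fed (400 uM added) Drosophila S3 cells treated with a concentration series. 20 uM Triacsin C defined 100% inhibition.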
# [1] = measured here: lipid fluorescence (Fed channel) AC50, cells fed with added oleic acid
# [2] = measured here: cell number channel AC50, cells fed with added oleic acid
SMILES,cell number change,AC50 [1],AC50 [2]
Cc1nnc(SCC(=O)N(C)C2CCS(=O)(=O)C2)n1Cc1ccccc1 (centres undefined),8.77%,–,–
CC(=O)Nc1ccc(NC(=O)C(C)OC(=O)CSCc2cccc(Cl)c2)cc1 (centres undefined),–,"4.11 µM [rising, partial curve]",–
C=C(C)CC(c1ccccc1)N(C(C)=O)c1ccco1 (centres undefined),2.81%,"0.411 µM [rising, partial curve]",–
CCOc1ccc(/C=N/N2C(=O)C(CC(=O)Nc3ccc(F)cc3F)SC2=NC)cc1OC (centres undefined),-2.38%,"1.64 µM [rising, partial curve, poor fit]",–
O=C(Nc1cccc(C(=O)N2CCN(c3ccc(F)cc3)CC2)c1)c1ccccc1,14.5%,"1.46 µM [falling, partial curve]",–
COc1ccc(C)cc1NC(=O)CSc1nnc(-c2cc3cccc(OC)c3o2)n1N,-12.4%,"29.1 µM [falling, single point]",–
CN1C(C(=O)Nc2cccc(O)c2)=CC(c2cccs2)=NS1(=O)=O,11%,"6.51 µM [rising, single point]","0.0146 µM [rising, full curve, poor fit]"
Cc1ccc(/C=C2\SC(=S)N(CCC(=O)Nc3ccc(O)cc3)C2=O)cc1,-32%,"29.1 µM [falling, single point]","29.1 µM [falling, single point]"
Cc1cccc(NC(=O)c2ccc(F)c(S(=O)(=O)NCc3ccco3)c2)c1,-28%,"29.1 µM [falling, single point]","0.00461 µM [falling, full curve, poor fit]"
O=C(CSc1cccc2cccc(Cl)c12)NCc1cccs1,-20.9%,–,"0.291 µM [falling, partial curve, poor fit]"
CCCCCc1cc(=O)oc2c(C(CCN(CC)CC)c3ccc(OC)cc3)c(OC)cc(OC)c12 (centres undefined),-48.4%,"23.1 µM [falling, single point]","29.1 µM [falling, single point]"
Cc1c(C(=O)N(Cc2ccc(Cl)cc2)C2CCS(=O)(=O)C2)oc2ccccc12 (centres undefined),–,"18.4 µM [falling, partial curve]",–
CCOc1ccc(NC(=O)CN(C)CC(=O)Nc2ccc(Br)cc2F)cc1OCC,25.8%,"0.651 µM [rising, full curve, poor fit]","4.11 µM [rising, full curve, poor fit]"
CCOCc1nnc(NC(=O)c2cc(OC)c(OC)c(OC)c2)s1,-0.356%,"0.058 µM [falling, full curve, poor fit]",–
Cc1cc(Cl)ccc1C(=O)C1CCCN(C(=O)CN2CCOC2=O)C1 (centres undefined),5.1%,"0.0058 µM [rising, full curve, poor fit]","0.164 µM [rising, partial curve]"
O=[N+]([O-])c1cc(Cl)cc(/C=N/NC(=S)Nc2cc(S(=O)(=O)N3CCOCC3)ccc2Cl)c1O,-14.7%,"0.651 µM [rising, partial curve]",–

SMILES,cell number change,AC50 [1],AC50 [2]
CCOC(=O)[C@@H]1[C@H]2COc3ccccc3[C@H]2N2C(=O)N(c3ccc(F)cc3)C(=O)[C@]12C,17.7%,"29.1 µM [rising, single point]",–
COC(=O)c1ccc(NC(=O)CCN2CCCCC2)cc1,-7.17% and -61.4%,"23.1 µM [falling, partial curve] and 29.1 µM [falling, single point]","32.6 µM [falling, single point]"
O=C(NC1CCCC1)C(c1ccco1)N(C(=O)c1ccco1)c1ccc(F)cc1 (centres undefined),3.85%,"0.13 µM [rising, full curve]",–
CC(=O)c1ccc(NC(=O)c2ccc([N+](=O)[O-])o2)cc1,-40.7%,"4.61 µM [falling, full curve]","11.6 µM [falling, partial curve, poor fit]"
Cc1ccc(NC(=S)N(CCCN(C)C)Cc2cc3cc4c(cc3[nH]c2=O)OCO4)c(C)c1,26.1%,"5.17 µM [rising, full curve, poor fit]",–
CCOc1ccc(S(=O)(=O)Nc2ccc(C(=O)NNC(=O)c3ccncc3)cc2)cc1,42.4%,–,"7.31 µM [rising, full curve]"
Cc1ccnc(NS(=O)(=O)c2ccc(NC(=O)c3ccc(S(=O)(=O)N4CCCC4)cc3)cc2)n1,-29.3%,"23.1 µM [falling, single point]","5.17 µM [falling, full curve, poor fit]"
CCc1nnc(NC(=O)CN2CCN(C3CCCCC3)CC2)s1,-110%,"0.411 µM [falling, full curve]","0.58 µM [falling, full curve]"
COc1ccc(-c2c(NC(=O)c3ccco3)oc3c(C)cccc3c2=O)cc1,-6.84%,"6.51 µM [falling, single point]","3.26 µM [falling, single point]"
O=C(O)CCCn1c(=S)[nH]c2c(sc3ccc([N+](=O)[O-])cc32)c1=O,-11.8%,"0.116 µM [rising, full curve, poor fit]",–
CC(=O)Nc1ccc(C#Cc2ccc(NC(C)=O)cc2)cc1,-18%,"0.58 µM [falling, single point]","0.0461 µM [falling, single point]"
O=C(OCCN1CCCCC1)c1ccccc1Cl,-72.7%,"29.1 µM [falling, single point]","29.1 µM [falling, single point]"
Cc1ccc(CNC(C)(C)CO)cc1,-11.5%,"13 µM [rising, partial curve, poor fit]",–
CCOC(=O)c1c(C(F)(F)F)nc2ncccn12,6.24%,–,"6.51 µM [rising, single point]"
COc1cc(C(=O)OCC(C)=O)cc(NC(=O)c2ccco2)c1OC,72.7%,–,"23.1 µM [rising, single point]"
COc1cccc(-c2noc(CCC(=O)NCC3CCCO3)n2)c1 (centres undefined),50.3%,–,"0.92 µM [rising, full curve, poor fit]"

# Among those listed so far, 3 have an aryl thioether with sulfur outside any ring:
SMILES,cell number change,AC50 [1],AC50 [2]
Cc1nnc(SCC(=O)N(C)C2CCS(=O)(=O)C2)n1Cc1ccccc1 (centres undefined),8.77%,–,–
COc1ccc(C)cc1NC(=O)CSc1nnc(-c2cc3cccc(OC)c3o2)n1N,-12.4%,"29.1 µM [falling, single point]",–
O=C(CSc1cccc2cccc(Cl)c12)NCc1cccs1,-20.9%,–,"0.291 µM [falling, partial curve, poor fit]"

# From PubChem BioAssay AID2685 (National Center for Advancing Translational Sciences (NCATS), 2010)
